# Data published in PMC5687663.
# Protein sequences, listed by entry. Tags and fused reporters are not part of them.
# UniProt P19139: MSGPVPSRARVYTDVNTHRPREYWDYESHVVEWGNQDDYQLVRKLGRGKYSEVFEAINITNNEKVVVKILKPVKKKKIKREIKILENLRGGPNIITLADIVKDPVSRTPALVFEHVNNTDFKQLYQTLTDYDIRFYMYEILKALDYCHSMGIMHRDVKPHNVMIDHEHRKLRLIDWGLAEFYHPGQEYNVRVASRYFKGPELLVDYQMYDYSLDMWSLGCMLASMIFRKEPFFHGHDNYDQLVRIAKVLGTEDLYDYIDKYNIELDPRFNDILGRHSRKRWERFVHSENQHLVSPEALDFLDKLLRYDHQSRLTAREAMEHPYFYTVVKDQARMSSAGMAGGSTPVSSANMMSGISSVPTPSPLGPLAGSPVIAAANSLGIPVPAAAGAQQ
# UniProt Q91V26: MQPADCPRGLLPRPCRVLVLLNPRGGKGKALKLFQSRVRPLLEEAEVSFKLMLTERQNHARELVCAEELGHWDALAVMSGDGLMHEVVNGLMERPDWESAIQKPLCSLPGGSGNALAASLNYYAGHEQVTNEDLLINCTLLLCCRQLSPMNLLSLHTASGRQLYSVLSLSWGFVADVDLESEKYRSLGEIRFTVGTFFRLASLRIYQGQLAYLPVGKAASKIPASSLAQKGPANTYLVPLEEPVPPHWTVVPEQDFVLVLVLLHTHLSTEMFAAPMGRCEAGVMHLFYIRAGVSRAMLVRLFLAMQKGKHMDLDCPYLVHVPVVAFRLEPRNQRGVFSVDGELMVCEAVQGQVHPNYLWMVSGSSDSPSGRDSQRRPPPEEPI
# These are yes or no findings as the source states them, for the method shown. In cells and extracts the contact can be indirect. Some binding calls cover weakened binding; strength is not graded here.
# Biological target: Casein kinase 2α subunit (CK2α) (rat (endogenous in primary GMCs of Sprague-Dawley rats)) (UniProt P19139)
# Assay: co-IP; lysate of rat GMCs (500 μg protein) cultured in normal glucose or treated with high glucose for various times; 2 μg antibody against CK2α or SphK1 (or IgG) overnight at 4°C, agarose A/G beads, western blot; both orientations
substance,measurement,value
Sphingosine kinase 1 (SphK1) (from UniProt Q91V26 1-383) (enzyme),binding,binds
